Source: article PMC11171731

Chains of the proteins cited; added tags and fusions are not shown. Lines headed by an entry give the natural chain unless they say otherwise; changes in a name come on top.
UniProt Q01970: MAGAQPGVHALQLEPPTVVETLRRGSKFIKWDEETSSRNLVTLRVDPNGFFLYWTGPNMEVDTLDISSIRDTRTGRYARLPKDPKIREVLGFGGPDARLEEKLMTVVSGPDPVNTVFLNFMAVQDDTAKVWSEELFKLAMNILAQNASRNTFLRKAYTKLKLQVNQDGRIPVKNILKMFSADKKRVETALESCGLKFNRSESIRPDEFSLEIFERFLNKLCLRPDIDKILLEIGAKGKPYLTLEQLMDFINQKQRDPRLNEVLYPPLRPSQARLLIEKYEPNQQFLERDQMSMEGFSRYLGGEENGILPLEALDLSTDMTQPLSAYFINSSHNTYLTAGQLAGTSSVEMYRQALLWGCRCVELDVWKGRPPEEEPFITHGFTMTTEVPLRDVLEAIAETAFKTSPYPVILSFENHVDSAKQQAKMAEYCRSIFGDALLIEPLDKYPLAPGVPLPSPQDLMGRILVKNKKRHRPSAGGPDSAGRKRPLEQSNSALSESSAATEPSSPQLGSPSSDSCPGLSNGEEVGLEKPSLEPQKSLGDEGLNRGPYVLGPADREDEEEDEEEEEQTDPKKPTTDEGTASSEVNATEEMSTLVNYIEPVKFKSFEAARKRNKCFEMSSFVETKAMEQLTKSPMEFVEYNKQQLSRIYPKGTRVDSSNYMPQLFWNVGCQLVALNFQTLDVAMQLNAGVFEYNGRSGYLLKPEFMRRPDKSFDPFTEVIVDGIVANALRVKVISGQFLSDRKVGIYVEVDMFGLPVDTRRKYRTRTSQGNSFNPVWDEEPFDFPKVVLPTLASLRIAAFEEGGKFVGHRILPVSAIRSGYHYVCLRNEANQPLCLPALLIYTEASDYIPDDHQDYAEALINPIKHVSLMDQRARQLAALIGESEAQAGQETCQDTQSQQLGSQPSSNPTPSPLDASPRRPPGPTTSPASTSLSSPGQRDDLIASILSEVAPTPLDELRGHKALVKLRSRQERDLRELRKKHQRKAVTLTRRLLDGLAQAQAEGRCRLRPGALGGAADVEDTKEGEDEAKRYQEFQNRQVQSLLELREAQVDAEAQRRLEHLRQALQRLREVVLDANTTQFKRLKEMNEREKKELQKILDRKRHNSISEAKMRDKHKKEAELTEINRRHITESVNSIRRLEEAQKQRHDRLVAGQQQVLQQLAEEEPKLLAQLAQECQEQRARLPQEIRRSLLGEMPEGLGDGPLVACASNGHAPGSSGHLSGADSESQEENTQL
UniProt P49841: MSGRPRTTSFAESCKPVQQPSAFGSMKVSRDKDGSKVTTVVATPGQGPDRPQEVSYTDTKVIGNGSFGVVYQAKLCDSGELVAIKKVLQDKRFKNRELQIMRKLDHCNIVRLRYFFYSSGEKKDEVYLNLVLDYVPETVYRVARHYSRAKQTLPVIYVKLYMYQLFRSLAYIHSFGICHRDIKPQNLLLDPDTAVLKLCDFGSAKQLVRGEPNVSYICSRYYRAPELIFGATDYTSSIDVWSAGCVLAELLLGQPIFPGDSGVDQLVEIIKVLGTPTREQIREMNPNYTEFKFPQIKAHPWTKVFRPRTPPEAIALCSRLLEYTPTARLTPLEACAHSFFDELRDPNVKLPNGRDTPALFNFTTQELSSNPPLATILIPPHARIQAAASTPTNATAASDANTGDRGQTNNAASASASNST
UniProt O14641: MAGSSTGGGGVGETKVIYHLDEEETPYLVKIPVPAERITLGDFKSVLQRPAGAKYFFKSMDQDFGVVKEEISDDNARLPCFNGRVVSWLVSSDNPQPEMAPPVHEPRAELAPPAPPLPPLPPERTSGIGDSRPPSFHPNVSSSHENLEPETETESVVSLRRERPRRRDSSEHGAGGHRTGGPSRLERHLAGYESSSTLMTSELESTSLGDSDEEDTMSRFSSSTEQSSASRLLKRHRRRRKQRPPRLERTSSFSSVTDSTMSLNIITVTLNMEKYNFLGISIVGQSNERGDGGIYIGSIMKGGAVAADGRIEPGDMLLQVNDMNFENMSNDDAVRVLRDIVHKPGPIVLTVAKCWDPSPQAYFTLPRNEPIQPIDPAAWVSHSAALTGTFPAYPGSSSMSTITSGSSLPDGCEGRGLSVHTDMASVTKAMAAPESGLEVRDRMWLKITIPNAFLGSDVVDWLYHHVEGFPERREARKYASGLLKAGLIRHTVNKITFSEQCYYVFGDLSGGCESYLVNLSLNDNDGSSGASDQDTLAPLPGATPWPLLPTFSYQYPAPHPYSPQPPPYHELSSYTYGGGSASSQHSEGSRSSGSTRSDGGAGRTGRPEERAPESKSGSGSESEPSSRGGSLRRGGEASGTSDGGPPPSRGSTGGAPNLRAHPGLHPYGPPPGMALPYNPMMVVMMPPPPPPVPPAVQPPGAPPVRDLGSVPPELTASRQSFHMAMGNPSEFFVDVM
UniProt P35222: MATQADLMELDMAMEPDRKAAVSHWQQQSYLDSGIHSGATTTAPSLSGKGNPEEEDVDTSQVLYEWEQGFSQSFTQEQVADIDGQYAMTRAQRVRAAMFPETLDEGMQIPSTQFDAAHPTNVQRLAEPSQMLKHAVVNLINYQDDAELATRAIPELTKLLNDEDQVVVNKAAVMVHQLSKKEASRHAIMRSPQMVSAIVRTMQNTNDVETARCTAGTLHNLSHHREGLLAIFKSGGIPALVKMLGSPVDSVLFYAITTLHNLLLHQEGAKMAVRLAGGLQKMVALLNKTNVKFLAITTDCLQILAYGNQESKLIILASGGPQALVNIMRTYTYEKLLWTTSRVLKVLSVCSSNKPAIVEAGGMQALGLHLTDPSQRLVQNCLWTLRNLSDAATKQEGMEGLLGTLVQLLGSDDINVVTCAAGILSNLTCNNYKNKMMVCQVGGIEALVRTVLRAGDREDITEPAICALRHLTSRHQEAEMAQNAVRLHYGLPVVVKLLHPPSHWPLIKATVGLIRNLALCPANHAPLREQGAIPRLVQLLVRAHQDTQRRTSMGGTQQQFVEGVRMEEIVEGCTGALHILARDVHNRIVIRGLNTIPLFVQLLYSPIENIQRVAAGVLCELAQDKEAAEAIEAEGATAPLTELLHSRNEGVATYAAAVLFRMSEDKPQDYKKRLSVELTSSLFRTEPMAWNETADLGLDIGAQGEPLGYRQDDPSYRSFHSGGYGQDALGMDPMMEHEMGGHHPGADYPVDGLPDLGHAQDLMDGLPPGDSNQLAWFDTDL

Assays:
[1] = target: GST fusion of the PH-EF domain of PLC-β3 (UniProt Q01970); assay: pull-down; GST fusions of PLC-β3 domains as bait; source of the prey proteins and conditions not told
[2] = target: GST fusion of the split catalytic domains of PLC-β3 (UniProt Q01970); assay: as above

binding [1] | binding [2] | Molecule
binds | binds | GSK3β (from UniProt P49841 1-420) (enzyme)
binds | binds | Dvl2 (from UniProt O14641 1-736)

Continued, molecule first:

Molecule | binding [1] | binding [2]
β-catenin (from UniProt P35222 1-781) | binds | 
Lgr5 (receptor, UniProt O75473 22-907) GSSPRSGVLLRGCPTHCHCEPDGRMLLRVDCSDLGLSELPSNLSVFTSYLDLSMNNISQLLPNPLPSLRFLEELRLAGNALTYIPKGAFTGLYSLKVLMLQNNQLRHVPTEALQNLRSLQSLRLDANHISYVPPSCFSGLHSLRHLWLDDNALTEIPVQAFRSLSALQAMTLALNKIHHIPDYAFGNLSSLVVLHLHNNRIHSLGKKCFDGLHSLETLDLNYNNLDEFPTAIRTLSNLKELGFHSNNIRSIPEKAFVGNPSLITIHFYDNPIQFVGRSAFQHLPELRTLTLNGASQITEFPDLTGTANLESLTLTGAQISSLPQTVCNQLPNLQVLDLSYNLLEDLPSFSVCQKLQKIDLRHNEIYEIKVDTFQQLLSLRSLNLAWNKIAIIHPNAFSTLPSLIKLDLSSNLLSSFPITGLHGLTHLKLTGNHALQSLISSENFPELKVIEMPYAYQCCAFGVCENAYKISNQWNKGDNSSMDDLHKKDAGMFQAQDERDLEDFLLDFEEDLKALHSVQCSPSPGPFKPCEHLLDGWLIRIGVWTIAVLALTCNALVTSTVFRSPLYISPIKLLIGVIAAVNMLTGVSSAVLAGVDAFTFGSFARHGAWWENGVGCHVIGFLSIFASESSVFLLTLAALERGFSVKYSAKFETKAPFSSLKVIILLCALLALTMAAVPLLGGSKYGASPLCLPLPFGEPSTMGYMVALILLNSLCFLMMTIAYTKLYCNLDKGDLENIWDCSMVKHIALLLFTNCILNCPVAFLSFSSLINLTFISPEVIKFILLVVVPLPACLNPLLYILFNPHFKEDLVSLRKQTYVWTRSKHPSLMSINSDDVEKQSCDSTQALVTFTSSSITYDLPPSSVPSPAYPVTESCHLSSVAFVPCL | binds | 

These are yes or no findings as the source states them, for the method shown. In cells and extracts the contact can be indirect. Binding calls can cover weak binding; strength is not graded here.
